Experimental data from article PMC4546463.
No constants are given. Whether binding was seen depends on the method and setting. In cells and extracts the contact can be indirect.

Protein sequences, listed by entry. Tags and fused reporters are not part of them.
UniProt P13569: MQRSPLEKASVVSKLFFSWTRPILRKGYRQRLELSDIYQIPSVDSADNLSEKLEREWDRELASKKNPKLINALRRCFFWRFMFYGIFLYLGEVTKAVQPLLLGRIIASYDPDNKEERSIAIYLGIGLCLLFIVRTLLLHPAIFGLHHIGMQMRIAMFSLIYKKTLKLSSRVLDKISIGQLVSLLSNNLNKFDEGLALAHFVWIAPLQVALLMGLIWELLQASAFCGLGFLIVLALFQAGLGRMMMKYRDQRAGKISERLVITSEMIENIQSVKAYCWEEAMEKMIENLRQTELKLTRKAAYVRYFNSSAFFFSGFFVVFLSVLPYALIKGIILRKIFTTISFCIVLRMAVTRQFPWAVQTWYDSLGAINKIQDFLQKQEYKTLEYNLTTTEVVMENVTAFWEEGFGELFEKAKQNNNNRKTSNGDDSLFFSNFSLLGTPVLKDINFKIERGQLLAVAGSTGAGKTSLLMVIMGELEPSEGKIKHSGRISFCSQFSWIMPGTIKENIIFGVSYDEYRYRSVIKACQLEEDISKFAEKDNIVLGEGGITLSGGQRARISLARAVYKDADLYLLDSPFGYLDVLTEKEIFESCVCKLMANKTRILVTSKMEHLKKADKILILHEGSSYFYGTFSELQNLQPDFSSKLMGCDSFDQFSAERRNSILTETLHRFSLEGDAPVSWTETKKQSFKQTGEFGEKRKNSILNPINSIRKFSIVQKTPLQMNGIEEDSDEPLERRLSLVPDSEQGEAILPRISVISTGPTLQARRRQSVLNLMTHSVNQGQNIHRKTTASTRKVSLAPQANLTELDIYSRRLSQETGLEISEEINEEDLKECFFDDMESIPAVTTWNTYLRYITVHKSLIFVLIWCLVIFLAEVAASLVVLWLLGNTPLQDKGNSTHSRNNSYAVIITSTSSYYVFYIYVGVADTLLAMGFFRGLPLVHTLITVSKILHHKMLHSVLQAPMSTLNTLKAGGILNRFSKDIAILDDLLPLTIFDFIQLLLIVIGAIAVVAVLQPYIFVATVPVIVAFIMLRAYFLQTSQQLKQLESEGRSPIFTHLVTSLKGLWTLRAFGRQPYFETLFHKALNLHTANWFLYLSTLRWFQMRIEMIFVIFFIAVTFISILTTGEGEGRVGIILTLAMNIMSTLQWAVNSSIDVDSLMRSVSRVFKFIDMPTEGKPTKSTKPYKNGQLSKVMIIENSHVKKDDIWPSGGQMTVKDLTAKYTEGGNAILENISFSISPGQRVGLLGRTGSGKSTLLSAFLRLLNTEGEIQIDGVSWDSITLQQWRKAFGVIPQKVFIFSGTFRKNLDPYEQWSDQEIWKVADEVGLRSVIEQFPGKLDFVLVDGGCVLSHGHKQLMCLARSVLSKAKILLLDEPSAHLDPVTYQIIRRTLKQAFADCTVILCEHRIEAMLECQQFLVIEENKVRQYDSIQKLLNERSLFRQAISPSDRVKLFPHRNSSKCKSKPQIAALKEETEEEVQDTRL
UniProt Q07812: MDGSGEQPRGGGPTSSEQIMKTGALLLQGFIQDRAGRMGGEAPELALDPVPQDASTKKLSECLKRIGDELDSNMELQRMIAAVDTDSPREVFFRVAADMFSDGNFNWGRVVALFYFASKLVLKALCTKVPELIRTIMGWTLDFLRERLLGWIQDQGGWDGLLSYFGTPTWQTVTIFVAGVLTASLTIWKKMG

Target: Cystic Fibrosis Trans membrane Conductance Regulator (human (endogenous in LNCaP)) (UniProt P13569)
Assay: proximity ligation; Olink PLA kit in LNCaP cells deprived of androgen (DMSO) or with 2.5 nM R1881; rabbit anti-LMTK2 with mouse anti-AR; rabbit anti-BAX with mouse anti-CFTR as negative control; signals per nucleus counted with Image-J

Bcl2 associated protein-X (from UniProt Q07812 1-192)
binding: no binding
